Assay results reported in the supplement of paper PMC4604168 (melanoma cell lines).
This is one part of the list. Many values rest on one well or one pass, so single values are uncertain.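 The apoptosis fraction was the count of cleaved-PARP antibody-stained nuclei relative to all DNA-stained nuclei, imaged in 1,536-well plates. Screening doses were set so most cells survived, and baseline and induced cleaved-PARP levels vary greatly across cell lines.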

What was measured:
Experiment in all cases: cleaved PARP positive nuclei fraction relative to DMSO control; melanoma cells; higher = more apoptosis
Conditions in all cases: library dose: low library concentration; 72 h
501Mel = system: 501Mel
A101D = system: A101D
A2058 = system: A2058
A375 = system: A375
C32 = system: C32
CBRC008 = system: CBRC008 (line from a melanoma biopsy)
CBRC014 = system: CBRC014 (line from a melanoma biopsy)
CBRC016 = system: CBRC016 (line from a melanoma biopsy)
CBRC017 = system: CBRC017 (line from a melanoma biopsy)
CBRC034 = system: CBRC034 (line from a melanoma biopsy)
COLO792 = system: COLO792
COLO800 = system: COLO800
COLO829 = system: COLO829
G361 = system: G361
IPC-298 = system: IPC-298
IST-MEL1 = system: IST-MEL1
LB2518-MEL = system: LB2518-MEL
LOXIMVI = system: LOXIMVI
MEL-HO = system: MEL-HO

Compound | cleaved PARP positive nuclei fraction (501Mel) | cleaved PARP positive nuclei fraction (A101D) | cleaved PARP positive nuclei fraction (A2058) | cleaved PARP positive nuclei fraction (A375) | cleaved PARP positive nuclei fraction (C32) | cleaved PARP positive nuclei fraction (CBRC008) | cleaved PARP positive nuclei fraction (CBRC014) | cleaved PARP positive nuclei fraction (CBRC016) | cleaved PARP positive nuclei fraction (CBRC017) | cleaved PARP positive nuclei fraction (CBRC034) | cleaved PARP positive nuclei fraction (COLO792) | cleaved PARP positive nuclei fraction (COLO800) | cleaved PARP positive nuclei fraction (COLO829) | cleaved PARP positive nuclei fraction (G361) | cleaved PARP positive nuclei fraction (IPC-298) | cleaved PARP positive nuclei fraction (IST-MEL1) | cleaved PARP positive nuclei fraction (LB2518-MEL) | cleaved PARP positive nuclei fraction (LOXIMVI) | cleaved PARP positive nuclei fraction (MEL-HO)
CO[C@H]1C[C@@H]2CC[C@@H](C)[C@@](O)(O2)C(=O)C(=O)N2CCCC[C@H]2C(=O)O[C@H]([C@H](C)C[C@@H]2CC[C@@H](OCCO)[C@H](OC)C2)CC(=O)[C@H](C)/C=C(\C)[C@@H](O)[C@@H](OC)C(=O)[C@H](C)C[C@H](C)/C=C/C=C/C=C/1C [everolimus] + OCc1c[nH]c2ccccc12 [Indole-3-carbinol] (first compound 0.02 µM, partner dose 0.8 µM) | 353% | 233% | 67.9% | 776% | 80.3% | 74.2% | 99.2% | 171% | 110% | 49.4% | 187% | 121% | 96.4% | 81% | 166% | 192% | 149% | 217% | 82.3%
CN1CCN(c2ccc3nc(-c4c(N)c5c(F)cccc5[nH]c4=O)[nH]c3c2)CC1 [Dovitinib] + Nc1nc(F)nc2c1ncn2[C@@H]1O[C@H](CO)[C@@H](O)[C@@H]1O [fludarabine] (first compound 0.1 µM, partner dose 0.2 µM) | 5020% | 43.9% | 194% | 1940% | 67.4% | 89.3% | 85% | 63.4% | 89.4% | 79.8% | 92.1% | 84.2% | 50% | 74.9% | 218% | 62.9% | 53.2% | 76.9% | 61.2%
CO[C@H]1C[C@@H]2CC[C@@H](C)[C@@](O)(O2)C(=O)C(=O)N2CCCC[C@H]2C(=O)O[C@H]([C@H](C)C[C@@H]2CC[C@@H](OCCO)[C@H](OC)C2)CC(=O)[C@H](C)/C=C(\C)[C@@H](O)[C@@H](OC)C(=O)[C@H](C)C[C@H](C)/C=C/C=C/C=C/1C [everolimus] + Clc1ccc(Nc2nnc(Cc3ccncc3)c3ccccc23)cc1 [vatalanib] (first compound 0.02 µM, partner dose 2 µM) | 257% | 121% | 102% | 776% | 90.9% | 264% | 144% | 96.6% | 139% | 104% | 233% | 86.8% | 112% | 411% | 118% | 170% | 116% | 134% | 61.6%
Nc1ncn([C@H]2C[C@H](O)[C@@H](CO)O2)c(=O)n1 [decitabine] + Nc1cccc2c1CN(C1CCC(=O)NC1=O)C2=O [lenalidomide] (first compound 0.1 µM, partner dose 1 µM) | 172% | 102% | 142% | 203% | 143% | 117% | 93.1% | 57.8% | 114% | 96.4% | 118% | 53.4% | 75.4% | 69.2% | 79.4% | 96% | 244% | 108% | 99.2%
Cn1c(=O)n(-c2ccc(C(C)(C)C#N)cc2)c2c3cc(-c4cnc5ccccc5c4)ccc3ncc21 + C#Cc1cccc(Nc2ncnc3cc(OCCOC)c(OCCOC)cc23)c1 [erlotinib] (first compound 0.004 µM, partner dose 0.8 µM) | 102% | 185% | 107% | 170% | 72.6% | 121% | 81.2% | 145% | 120% | 80% | 172% | 43.8% | 113% | 135% | 97.3% | 64.3% | 227% | 195% | 96.4%
O=C(O)c1ccc2c(c1)nc(Nc1cccc(Cl)c1)c1ccncc12 + Cn1c(Nc2ccc(C(F)(F)F)cc2)nc2cc(Oc3ccnc(-c4ncc(C(F)(F)F)[nH]4)c3)ccc21 [CHIR265] (first compound 0.4 µM, partner dose 0.08 µM) | 289% | 151% | 248% | 660% | 98.4% | 109% | 147% | 245% | 237% | 281% | 466% | 184% | 109% | 118% | 189% | 120% | 344% | 37.8% | 41.3%
CN1CCN(c2ccc3nc(-c4c(N)c5c(F)cccc5[nH]c4=O)[nH]c3c2)CC1 [Dovitinib] + Clc1ccc(Nc2nnc(Cc3ccncc3)c3ccccc23)cc1 [vatalanib] (first compound 0.1 µM, partner dose 2 µM) | 106% | 208% | 110% | 173% | 251% | 156% | 109% | 98.7% | 115% | 37.5% | 109% | 125% | 107% | 221% | 246% | 218% | 113% | 65.7% | 101%
CC(C)C[C@H](NC(=O)[C@H](Cc1ccccc1)NC(=O)c1cnccn1)B(O)O [Bortezomib] + Nc1ccn([C@@H]2O[C@H](CO)[C@@H](O)C2(F)F)c(=O)n1 [gemcitabine] (first compound 0.001 µM, partner dose 0.0004 µM) | 399% | 484% | 96.4% | 93.3% | 81.8% | 894% | 295% | 770% | 267% | 999% | 79.1% | 112% | 129% | 3740% | 120% | 163% | 551% | 54.6% | 79.1%
CNC(=O)c1cc(Oc2ccc(NC(=O)Nc3ccc(Cl)c(C(F)(F)F)c3)cc2)ccn1 [sorafenib] + COc1ccc(Cl)c(Nc2nc3ccccc3nc2NS(=O)(=O)c2cccc(NC(=O)C(C)(C)N)c2)c1 [XL147] (first compound 0.4 µM, partner dose 0.8 µM) | 41% | 47.1% | 62.9% | 111% | 41.6% | 655% | 128% | 240% | 118% | 222% | 50.8% | 83.4% | 67.8% | 146% | 30% | 53.7% | 22.9% | 24.6% | 64.3%
O=C(O)c1ccc2c(c1)nc(Nc1cccc(Cl)c1)c1ccncc12 + Cc1nc(Nc2ncc(C(=O)Nc3c(C)cccc3Cl)s2)cc(N2CCN(CCO)CC2)n1 [dasatanib] (first compound 0.4 µM, partner dose 0.004 µM) | 222% | 465% | 331% | 185% | 103% | 85.6% | 180% | 210% | 187% | 183% | 193% | 100% | 76.2% | 126% | 163% | 71.3% | 149% | 103% | 34%
O=C(O)[C@@H]1[O][Sb](=[O])([O][Sb]2(=[O])[O][C@H]([C@H](O)CO)[C@H](O)[C@H](C(=O)O)[O]2)[O][C@H]([C@H](O)CO)[C@@H]1O (stereo partly drawn) [stibogluconate] + Nc1ccn([C@@H]2O[C@H](CO)[C@@H](O)C2(F)F)c(=O)n1 [gemcitabine] (first compound 2 µM, partner dose 0.0004 µM) | 58.4% | 89% | 110% | 93.4% | 280% | 182% | 156% | 309% | 124% | 249% | 76.5% | 71% | 139% | 129% | 95.2% | 246% | 233% | 55.4% | 63.6%
C[C@@H](Oc1cc(-c2cnn(C3CCNCC3)c2)cnc1N)c1c(Cl)ccc(F)c1Cl [Crizotinib] + CO[C@H]1C[C@@H]2CC[C@@H](C)[C@@](O)(O2)C(=O)C(=O)N2CCCC[C@H]2C(=O)O[C@H]([C@H](C)C[C@@H]2CC[C@@H](OCCO)[C@H](OC)C2)CC(=O)[C@H](C)/C=C(\C)[C@@H](O)[C@@H](OC)C(=O)[C@H](C)C[C@H](C)/C=C/C=C/C=C/1C [everolimus] (first compound 0.2 µM, partner dose 0.02 µM) | 391% | 56.8% | 128% | 356% | 204% | 104% | 87.8% | 134% | 119% | 71.8% | 218% | 80% | 108% | 207% | 234% | 118% | 409% | 67.7% | 174%

Two neighbouring entries already listed:
Compound | cleaved PARP positive nuclei fraction (501Mel) | cleaved PARP positive nuclei fraction (A101D) | cleaved PARP positive nuclei fraction (A2058) | cleaved PARP positive nuclei fraction (A375) | cleaved PARP positive nuclei fraction (C32) | cleaved PARP positive nuclei fraction (CBRC008) | cleaved PARP positive nuclei fraction (CBRC014) | cleaved PARP positive nuclei fraction (CBRC016) | cleaved PARP positive nuclei fraction (CBRC017) | cleaved PARP positive nuclei fraction (CBRC034) | cleaved PARP positive nuclei fraction (COLO792) | cleaved PARP positive nuclei fraction (COLO800) | cleaved PARP positive nuclei fraction (COLO829) | cleaved PARP positive nuclei fraction (G361) | cleaved PARP positive nuclei fraction (IPC-298) | cleaved PARP positive nuclei fraction (IST-MEL1) | cleaved PARP positive nuclei fraction (LB2518-MEL) | cleaved PARP positive nuclei fraction (LOXIMVI) | cleaved PARP positive nuclei fraction (MEL-HO)
CO[C@H]1C[C@@H]2CC[C@@H](C)[C@@](O)(O2)C(=O)C(=O)N2CCCC[C@H]2C(=O)O[C@H]([C@H](C)C[C@@H]2CC[C@@H](OCCO)[C@H](OC)C2)CC(=O)[C@H](C)/C=C(\C)[C@@H](O)[C@@H](OC)C(=O)[C@H](C)C[C@H](C)/C=C/C=C/C=C/1C [everolimus] + Clc1ccc(Nc2nnc(Cc3ccncc3)c3ccccc23)cc1 [vatalanib] (first compound 0.02 µM, partner dose 2 µM) | 257% | 121% | 102% | 776% | 90.9% | 264% | 144% | 96.6% | 139% | 104% | 233% | 86.8% | 112% | 411% | 118% | 170% | 116% | 134% | 61.6%
Nc1ncn([C@H]2C[C@H](O)[C@@H](CO)O2)c(=O)n1 [decitabine] + Nc1cccc2c1CN(C1CCC(=O)NC1=O)C2=O [lenalidomide] (first compound 0.1 µM, partner dose 1 µM) | 172% | 102% | 142% | 203% | 143% | 117% | 93.1% | 57.8% | 114% | 96.4% | 118% | 53.4% | 75.4% | 69.2% | 79.4% | 96% | 244% | 108% | 99.2%
